Data from PMC10777929.
Results are given in words; binding and its absence hold for the method and conditions named. For some assays here: In cells and extracts the contact can be indirect. Some binding calls cover weakened binding; strength is not graded here. For some assays here: Tags and fused reporters may be left off the sequences shown.

Protein sequences, listed by entry. Tags and fused reporters are not part of them. Lines headed by an entry give the natural chain unless they say otherwise; changes in a name come on top. Chains listed by the source or under a name are the forms on record and can include a tag or linker.
UniProt O95863: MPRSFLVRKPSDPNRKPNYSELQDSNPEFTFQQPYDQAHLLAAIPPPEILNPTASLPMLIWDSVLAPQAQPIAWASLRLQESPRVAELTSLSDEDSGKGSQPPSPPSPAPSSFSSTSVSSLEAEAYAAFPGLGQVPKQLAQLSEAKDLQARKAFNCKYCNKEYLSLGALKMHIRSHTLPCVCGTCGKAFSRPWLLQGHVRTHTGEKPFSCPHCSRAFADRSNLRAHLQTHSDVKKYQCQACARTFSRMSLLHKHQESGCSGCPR
UniProt Q16659: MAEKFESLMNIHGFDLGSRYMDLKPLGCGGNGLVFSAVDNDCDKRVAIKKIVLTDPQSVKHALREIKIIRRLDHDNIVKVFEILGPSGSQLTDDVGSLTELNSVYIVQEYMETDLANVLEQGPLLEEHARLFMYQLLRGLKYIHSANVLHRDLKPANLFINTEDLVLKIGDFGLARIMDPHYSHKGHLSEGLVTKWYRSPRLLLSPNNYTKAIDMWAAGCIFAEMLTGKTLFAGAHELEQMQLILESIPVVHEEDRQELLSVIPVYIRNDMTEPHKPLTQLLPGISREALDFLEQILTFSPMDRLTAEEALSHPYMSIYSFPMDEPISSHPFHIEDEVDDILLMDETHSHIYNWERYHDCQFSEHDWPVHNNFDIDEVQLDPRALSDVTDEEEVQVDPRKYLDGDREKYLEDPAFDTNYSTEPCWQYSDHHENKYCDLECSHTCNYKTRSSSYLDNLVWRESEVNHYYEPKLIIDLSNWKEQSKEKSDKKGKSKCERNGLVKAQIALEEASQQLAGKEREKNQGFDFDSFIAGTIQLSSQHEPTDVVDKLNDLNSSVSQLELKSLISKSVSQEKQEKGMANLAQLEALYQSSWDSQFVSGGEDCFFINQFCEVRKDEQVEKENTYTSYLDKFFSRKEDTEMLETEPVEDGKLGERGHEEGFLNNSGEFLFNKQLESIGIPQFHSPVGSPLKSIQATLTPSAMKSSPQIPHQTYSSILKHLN
Flag-ERK3 CA (constitutive active ERK3, Ser189 to aspartic acid) (Q16659, form named): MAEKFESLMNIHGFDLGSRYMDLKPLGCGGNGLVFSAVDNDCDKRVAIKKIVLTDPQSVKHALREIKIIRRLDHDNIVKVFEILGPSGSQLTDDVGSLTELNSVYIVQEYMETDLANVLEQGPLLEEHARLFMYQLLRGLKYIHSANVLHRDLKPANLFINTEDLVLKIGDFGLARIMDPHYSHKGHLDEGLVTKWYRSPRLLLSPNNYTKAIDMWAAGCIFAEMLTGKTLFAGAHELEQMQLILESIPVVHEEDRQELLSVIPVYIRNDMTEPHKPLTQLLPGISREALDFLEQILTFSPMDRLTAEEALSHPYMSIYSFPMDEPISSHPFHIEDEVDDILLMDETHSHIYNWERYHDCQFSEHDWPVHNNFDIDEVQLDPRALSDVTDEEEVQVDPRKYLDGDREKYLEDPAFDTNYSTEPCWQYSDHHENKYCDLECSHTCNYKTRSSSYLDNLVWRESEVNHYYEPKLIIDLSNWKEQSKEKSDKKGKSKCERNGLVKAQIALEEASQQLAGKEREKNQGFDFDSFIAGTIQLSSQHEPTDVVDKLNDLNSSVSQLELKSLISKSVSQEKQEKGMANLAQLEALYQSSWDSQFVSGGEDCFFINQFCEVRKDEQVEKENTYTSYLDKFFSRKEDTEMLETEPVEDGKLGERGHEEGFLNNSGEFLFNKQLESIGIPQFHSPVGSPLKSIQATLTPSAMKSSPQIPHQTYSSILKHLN
Flag-ERK3 KD (kinase dead ERK3, Asp171 to alanine) (Q16659, form named): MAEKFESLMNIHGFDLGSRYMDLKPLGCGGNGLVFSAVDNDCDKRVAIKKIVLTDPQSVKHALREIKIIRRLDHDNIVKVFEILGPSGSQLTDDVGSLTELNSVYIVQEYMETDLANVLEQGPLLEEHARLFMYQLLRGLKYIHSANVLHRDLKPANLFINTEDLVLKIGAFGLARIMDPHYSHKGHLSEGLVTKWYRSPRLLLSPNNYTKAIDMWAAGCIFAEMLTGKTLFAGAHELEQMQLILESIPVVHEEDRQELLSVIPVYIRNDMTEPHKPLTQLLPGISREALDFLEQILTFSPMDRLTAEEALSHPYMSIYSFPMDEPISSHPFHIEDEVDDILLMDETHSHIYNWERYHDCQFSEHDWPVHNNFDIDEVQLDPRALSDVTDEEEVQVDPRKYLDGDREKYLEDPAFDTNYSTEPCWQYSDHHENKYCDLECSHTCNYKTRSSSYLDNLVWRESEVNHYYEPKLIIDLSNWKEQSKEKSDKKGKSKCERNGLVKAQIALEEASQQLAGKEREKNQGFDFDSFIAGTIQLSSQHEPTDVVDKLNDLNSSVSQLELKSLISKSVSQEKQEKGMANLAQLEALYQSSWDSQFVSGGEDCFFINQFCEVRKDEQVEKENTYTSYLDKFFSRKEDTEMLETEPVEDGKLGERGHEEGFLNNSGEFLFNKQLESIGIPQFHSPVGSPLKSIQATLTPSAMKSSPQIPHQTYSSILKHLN

Columns and labels:
[1] = target: HA-Snail (human) (UniProt O95863); assay: co-IP; HEK293T cells co-transfected with tagged proteins; Triton X-100 lysis buffer; lysates incubated with anti-Flag, anti-HA or anti-Myc antibody overnight at 4 °C, Protein A+G agarose beads, five washes, Western blot; Figure 6E with or without co-expressed Flag-ERK3
[2] = target: Flag-ERK3 (pCMV3-MAPK6-Flag) (UniProt Q16659); assay: as above
[3] = target: Flag-ERK3 CA (constitutive active ERK3, Ser189 to aspartic acid) (UniProt Q16659); assay: as above
[4] = target: Flag-ERK3 KD (kinase dead ERK3, Asp171 to alanine) (UniProt Q16659); assay: as above
[5] = target: T1, Myc-FBXO11 (pCMV3-FBXO11-Myc) (UniProt Q86XK2); assay: as above
T1 sequence: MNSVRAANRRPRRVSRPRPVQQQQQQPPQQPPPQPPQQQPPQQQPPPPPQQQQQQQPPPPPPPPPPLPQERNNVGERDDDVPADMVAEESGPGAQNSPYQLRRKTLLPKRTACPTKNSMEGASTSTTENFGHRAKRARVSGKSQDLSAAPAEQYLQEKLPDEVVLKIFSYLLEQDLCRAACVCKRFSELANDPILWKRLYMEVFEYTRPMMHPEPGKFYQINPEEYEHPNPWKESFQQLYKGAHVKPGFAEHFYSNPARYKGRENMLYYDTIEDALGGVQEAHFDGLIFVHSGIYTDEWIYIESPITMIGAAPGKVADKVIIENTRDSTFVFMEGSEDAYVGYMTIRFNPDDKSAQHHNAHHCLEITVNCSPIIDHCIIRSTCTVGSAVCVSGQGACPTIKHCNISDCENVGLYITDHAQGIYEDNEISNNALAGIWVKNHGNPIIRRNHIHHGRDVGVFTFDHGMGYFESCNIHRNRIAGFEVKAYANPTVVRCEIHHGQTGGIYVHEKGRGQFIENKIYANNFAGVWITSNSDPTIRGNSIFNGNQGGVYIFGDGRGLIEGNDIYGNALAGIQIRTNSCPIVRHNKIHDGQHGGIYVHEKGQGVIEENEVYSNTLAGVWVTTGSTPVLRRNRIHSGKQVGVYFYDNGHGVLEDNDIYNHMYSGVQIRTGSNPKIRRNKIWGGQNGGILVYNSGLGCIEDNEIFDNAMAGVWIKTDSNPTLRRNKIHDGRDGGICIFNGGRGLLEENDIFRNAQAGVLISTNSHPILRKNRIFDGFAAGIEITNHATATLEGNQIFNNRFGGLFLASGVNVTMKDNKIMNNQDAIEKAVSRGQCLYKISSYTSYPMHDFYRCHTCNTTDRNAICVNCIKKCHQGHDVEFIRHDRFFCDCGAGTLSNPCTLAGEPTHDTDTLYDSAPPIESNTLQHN

[6] = target: GST-Snail (human) (UniProt O95863); assay: pull-down; GST or GST-Snail incubated with HIS-FBXO11 in the presence or absence of HIS-ERK3 overnight at 4 °C in GST binding buffer (50 mM Tris-HCl pH 7.5, 150 mM NaCl, 1 mM EDTA); captured on Glutathione HiCap Matrix beads; Western blot with the anti-FBXO11 antibody; both purified
[7] = target: endogenous Snail (human (endogenous in MIA PaCa-2 and PANC-1)) (UniProt O95863); assay: co-IP; endogenous proteins in MIA PaCa-2 and PANC-1 cell lysates; immunoprecipitation with the anti-Snail antibody, Western blot

Molecule: Flag-ERK3 (pCMV3-MAPK6-Flag) (from UniProt Q16659 1-721) (enzyme)
- binding [1]: binds

Molecule: HA-Snail (from UniProt O95863 1-264)
- binding [2]: binds
- binding [3]: binds
- binding [4]: binds
- binding [5]: binds

Molecule: Recombinant HIS-ERK3 (from UniProt Q16659 1-721) (enzyme)
- binding [6]: binds

Molecule: endogenous ERK3 (from UniProt Q16659 1-721) (enzyme)
- binding [7]: binds

B1: Recombinant HIS-FBXO11 (protein, UniProt Q86XK2 1-927)
chain: MNSVRAANRRPRRVSRPRPVQQQQQQPPQQPPPQPPQQQPPQQQPPPPPQQQQQQQPPPPPPPPPPLPQERNNVGERDDDVPADMVAEESGPGAQNSPYQLRRKTLLPKRTACPTKNSMEGASTSTTENFGHRAKRARVSGKSQDLSAAPAEQYLQEKLPDEVVLKIFSYLLEQDLCRAACVCKRFSELANDPILWKRLYMEVFEYTRPMMHPEPGKFYQINPEEYEHPNPWKESFQQLYKGAHVKPGFAEHFYSNPARYKGRENMLYYDTIEDALGGVQEAHFDGLIFVHSGIYTDEWIYIESPITMIGAAPGKVADKVIIENTRDSTFVFMEGSEDAYVGYMTIRFNPDDKSAQHHNAHHCLEITVNCSPIIDHCIIRSTCTVGSAVCVSGQGACPTIKHCNISDCENVGLYITDHAQGIYEDNEISNNALAGIWVKNHGNPIIRRNHIHHGRDVGVFTFDHGMGYFESCNIHRNRIAGFEVKAYANPTVVRCEIHHGQTGGIYVHEKGRGQFIENKIYANNFAGVWITSNSDPTIRGNSIFNGNQGGVYIFGDGRGLIEGNDIYGNALAGIQIRTNSCPIVRHNKIHDGQHGGIYVHEKGQGVIEENEVYSNTLAGVWVTTGSTPVLRRNRIHSGKQVGVYFYDNGHGVLEDNDIYNHMYSGVQIRTGSNPKIRRNKIWGGQNGGILVYNSGLGCIEDNEIFDNAMAGVWIKTDSNPTLRRNKIHDGRDGGICIFNGGRGLLEENDIFRNAQAGVLISTNSHPILRKNRIFDGFAAGIEITNHATATLEGNQIFNNRFGGLFLASGVNVTMKDNKIMNNQDAIEKAVSRGQCLYKISSYTSYPMHDFYRCHTCNTTDRNAICVNCIKKCHQGHDVEFIRHDRFFCDCGAGTLSNPCTLAGEPTHDTDTLYDSAPPIESNTLQHN
- binding [6]: binds
